Measured values: US10124111B2, “Small molecule dye for molecular imaging and photothermal therapy” (The Board of Trustees of the Leland Stanford Junior …, priority 2015, dated 2018)

Test: NIR-II fluorescence brightness and quantum yield in DI, PBS, FBS, serum and serum proteins
Assay type: physicochemical
Description: The compound contains a taurine (2-aminoethanesulfonic acid) group at the carboxyl linkers of CH1055. […] Sulfonating the present NIR-II dyes is a general procedure that can be applied to a number of the NIR-II small molecules described above to increase their solubility.
The absorbance value of both fluorophores (OD 0.02) in each respective media is equivalent at the excitation wavelength (808 nm) to compare relative quantum yields. NIR-IIa fluorescent image of a C57 mouse brain (1300 LP) after an intravenous injection of equivalent doses of CH-4T (200 ms exposure; Panel B) and of CH1055-PEG (1 s exposure; Panel D). The image intensity scales have been compensated to account for the differences in the exposure times needed to clearly resolve brain vasculature.
This fluorescence enhancement produces a serum quantum yield of up to ˜10% which is on par with ICG and is among the highest quantum yields of all NIR-II fluorophores (including carbon nanotubes). While soluble in PBS, the quantum yield of CH-4T was determined to be ˜0.07%, yet is enhanced ˜60× through complexation with serum proteins in FBS.
Increased brightening of CH-4T also results from protein interactions. A fluorescence emission spectrum of CH1055-PEG and CH-4T in both FBS and PBS was determined. […] The increased intensity (40,000 a.u. around 1000 nm) for CH-4T in FBS was observed. […]

O=C(CCc1ccc(N(c2ccc(CCC(=O)NCCS(=O)(=O)O)cc2)c2ccc(-c3c4c(c(-c5ccc(N(c6ccc(CCC(=O)NCCS(=O)(=O)O)cc6)c6ccc(CCC(=O)NCCS(=O)(=O)O)cc6)cc5)c5nsnc35)N=S=N4)cc2)cc1)NCCS(=O)(=O)O [CH-4T]
quantum yield enhancement through complexation with serum proteins (FBS versus PBS): ~60 × | quantum yield relative to carbon nanotubes (with treated FBS): 30 ×
